Reference: article PMC3617406 (Molecular pharmaceutics, 2013)

Molecular target: T1, human ASBT (Homo sapiens, UniProt Q12908)
T1 sequence (Q12908 1-348): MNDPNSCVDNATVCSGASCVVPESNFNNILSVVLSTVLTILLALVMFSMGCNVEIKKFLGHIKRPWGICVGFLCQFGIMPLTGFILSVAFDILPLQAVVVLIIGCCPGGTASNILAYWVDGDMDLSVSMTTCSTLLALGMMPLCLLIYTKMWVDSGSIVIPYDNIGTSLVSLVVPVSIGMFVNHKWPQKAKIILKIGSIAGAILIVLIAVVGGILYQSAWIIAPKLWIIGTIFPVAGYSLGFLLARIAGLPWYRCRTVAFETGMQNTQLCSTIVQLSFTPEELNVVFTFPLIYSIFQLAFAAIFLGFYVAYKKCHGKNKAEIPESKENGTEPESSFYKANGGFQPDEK
Assay type: cell-based
Conditions: Ki values of Table 4 and 5

SMILES: COc1ccc(CC(C)NCC(O)c2ccc(O)c(NC=O)c2)cc1 (stereo not shown) [Formoterol]
- fold more potent ASBT inhibition than NTCP inhibition: ≥ 10 fold
